Test results: paper PMC9424819, “Evaluation of commonly used cardiovascular drugs in inhibiting vonoprazan metabolism in vitro and in vivo” (Frontiers in Pharmacology, 2022)

Test: Pharmacokinetics of vonoprazan and MI in rats with or without inhibitor pretreatment
Conditions: rats pretreated with 10 mg/kg inhibitor, then 2 mg/kg vonoprazan by gavage

COC(=O)C1=C(C)NC(C)=C(C(=O)OC)C1c1ccccc1[N+](=O)[O-] [Nifedipine, nifedipine]
inhibitory effect on vonoprazan metabolism in vivo: not observed
